# Assay results: the supplement of paper PMC12067093, “Discovery and optimisation of a covalent ligand for TRIM25 and its application to targeted protein ubiquitination” (Chemical Science, 2025)
# Chains of the proteins cited; added tags and fusions are not shown. Lines headed by an entry give the natural chain unless they say otherwise; changes in a name come on top.
# UniProt Q99698: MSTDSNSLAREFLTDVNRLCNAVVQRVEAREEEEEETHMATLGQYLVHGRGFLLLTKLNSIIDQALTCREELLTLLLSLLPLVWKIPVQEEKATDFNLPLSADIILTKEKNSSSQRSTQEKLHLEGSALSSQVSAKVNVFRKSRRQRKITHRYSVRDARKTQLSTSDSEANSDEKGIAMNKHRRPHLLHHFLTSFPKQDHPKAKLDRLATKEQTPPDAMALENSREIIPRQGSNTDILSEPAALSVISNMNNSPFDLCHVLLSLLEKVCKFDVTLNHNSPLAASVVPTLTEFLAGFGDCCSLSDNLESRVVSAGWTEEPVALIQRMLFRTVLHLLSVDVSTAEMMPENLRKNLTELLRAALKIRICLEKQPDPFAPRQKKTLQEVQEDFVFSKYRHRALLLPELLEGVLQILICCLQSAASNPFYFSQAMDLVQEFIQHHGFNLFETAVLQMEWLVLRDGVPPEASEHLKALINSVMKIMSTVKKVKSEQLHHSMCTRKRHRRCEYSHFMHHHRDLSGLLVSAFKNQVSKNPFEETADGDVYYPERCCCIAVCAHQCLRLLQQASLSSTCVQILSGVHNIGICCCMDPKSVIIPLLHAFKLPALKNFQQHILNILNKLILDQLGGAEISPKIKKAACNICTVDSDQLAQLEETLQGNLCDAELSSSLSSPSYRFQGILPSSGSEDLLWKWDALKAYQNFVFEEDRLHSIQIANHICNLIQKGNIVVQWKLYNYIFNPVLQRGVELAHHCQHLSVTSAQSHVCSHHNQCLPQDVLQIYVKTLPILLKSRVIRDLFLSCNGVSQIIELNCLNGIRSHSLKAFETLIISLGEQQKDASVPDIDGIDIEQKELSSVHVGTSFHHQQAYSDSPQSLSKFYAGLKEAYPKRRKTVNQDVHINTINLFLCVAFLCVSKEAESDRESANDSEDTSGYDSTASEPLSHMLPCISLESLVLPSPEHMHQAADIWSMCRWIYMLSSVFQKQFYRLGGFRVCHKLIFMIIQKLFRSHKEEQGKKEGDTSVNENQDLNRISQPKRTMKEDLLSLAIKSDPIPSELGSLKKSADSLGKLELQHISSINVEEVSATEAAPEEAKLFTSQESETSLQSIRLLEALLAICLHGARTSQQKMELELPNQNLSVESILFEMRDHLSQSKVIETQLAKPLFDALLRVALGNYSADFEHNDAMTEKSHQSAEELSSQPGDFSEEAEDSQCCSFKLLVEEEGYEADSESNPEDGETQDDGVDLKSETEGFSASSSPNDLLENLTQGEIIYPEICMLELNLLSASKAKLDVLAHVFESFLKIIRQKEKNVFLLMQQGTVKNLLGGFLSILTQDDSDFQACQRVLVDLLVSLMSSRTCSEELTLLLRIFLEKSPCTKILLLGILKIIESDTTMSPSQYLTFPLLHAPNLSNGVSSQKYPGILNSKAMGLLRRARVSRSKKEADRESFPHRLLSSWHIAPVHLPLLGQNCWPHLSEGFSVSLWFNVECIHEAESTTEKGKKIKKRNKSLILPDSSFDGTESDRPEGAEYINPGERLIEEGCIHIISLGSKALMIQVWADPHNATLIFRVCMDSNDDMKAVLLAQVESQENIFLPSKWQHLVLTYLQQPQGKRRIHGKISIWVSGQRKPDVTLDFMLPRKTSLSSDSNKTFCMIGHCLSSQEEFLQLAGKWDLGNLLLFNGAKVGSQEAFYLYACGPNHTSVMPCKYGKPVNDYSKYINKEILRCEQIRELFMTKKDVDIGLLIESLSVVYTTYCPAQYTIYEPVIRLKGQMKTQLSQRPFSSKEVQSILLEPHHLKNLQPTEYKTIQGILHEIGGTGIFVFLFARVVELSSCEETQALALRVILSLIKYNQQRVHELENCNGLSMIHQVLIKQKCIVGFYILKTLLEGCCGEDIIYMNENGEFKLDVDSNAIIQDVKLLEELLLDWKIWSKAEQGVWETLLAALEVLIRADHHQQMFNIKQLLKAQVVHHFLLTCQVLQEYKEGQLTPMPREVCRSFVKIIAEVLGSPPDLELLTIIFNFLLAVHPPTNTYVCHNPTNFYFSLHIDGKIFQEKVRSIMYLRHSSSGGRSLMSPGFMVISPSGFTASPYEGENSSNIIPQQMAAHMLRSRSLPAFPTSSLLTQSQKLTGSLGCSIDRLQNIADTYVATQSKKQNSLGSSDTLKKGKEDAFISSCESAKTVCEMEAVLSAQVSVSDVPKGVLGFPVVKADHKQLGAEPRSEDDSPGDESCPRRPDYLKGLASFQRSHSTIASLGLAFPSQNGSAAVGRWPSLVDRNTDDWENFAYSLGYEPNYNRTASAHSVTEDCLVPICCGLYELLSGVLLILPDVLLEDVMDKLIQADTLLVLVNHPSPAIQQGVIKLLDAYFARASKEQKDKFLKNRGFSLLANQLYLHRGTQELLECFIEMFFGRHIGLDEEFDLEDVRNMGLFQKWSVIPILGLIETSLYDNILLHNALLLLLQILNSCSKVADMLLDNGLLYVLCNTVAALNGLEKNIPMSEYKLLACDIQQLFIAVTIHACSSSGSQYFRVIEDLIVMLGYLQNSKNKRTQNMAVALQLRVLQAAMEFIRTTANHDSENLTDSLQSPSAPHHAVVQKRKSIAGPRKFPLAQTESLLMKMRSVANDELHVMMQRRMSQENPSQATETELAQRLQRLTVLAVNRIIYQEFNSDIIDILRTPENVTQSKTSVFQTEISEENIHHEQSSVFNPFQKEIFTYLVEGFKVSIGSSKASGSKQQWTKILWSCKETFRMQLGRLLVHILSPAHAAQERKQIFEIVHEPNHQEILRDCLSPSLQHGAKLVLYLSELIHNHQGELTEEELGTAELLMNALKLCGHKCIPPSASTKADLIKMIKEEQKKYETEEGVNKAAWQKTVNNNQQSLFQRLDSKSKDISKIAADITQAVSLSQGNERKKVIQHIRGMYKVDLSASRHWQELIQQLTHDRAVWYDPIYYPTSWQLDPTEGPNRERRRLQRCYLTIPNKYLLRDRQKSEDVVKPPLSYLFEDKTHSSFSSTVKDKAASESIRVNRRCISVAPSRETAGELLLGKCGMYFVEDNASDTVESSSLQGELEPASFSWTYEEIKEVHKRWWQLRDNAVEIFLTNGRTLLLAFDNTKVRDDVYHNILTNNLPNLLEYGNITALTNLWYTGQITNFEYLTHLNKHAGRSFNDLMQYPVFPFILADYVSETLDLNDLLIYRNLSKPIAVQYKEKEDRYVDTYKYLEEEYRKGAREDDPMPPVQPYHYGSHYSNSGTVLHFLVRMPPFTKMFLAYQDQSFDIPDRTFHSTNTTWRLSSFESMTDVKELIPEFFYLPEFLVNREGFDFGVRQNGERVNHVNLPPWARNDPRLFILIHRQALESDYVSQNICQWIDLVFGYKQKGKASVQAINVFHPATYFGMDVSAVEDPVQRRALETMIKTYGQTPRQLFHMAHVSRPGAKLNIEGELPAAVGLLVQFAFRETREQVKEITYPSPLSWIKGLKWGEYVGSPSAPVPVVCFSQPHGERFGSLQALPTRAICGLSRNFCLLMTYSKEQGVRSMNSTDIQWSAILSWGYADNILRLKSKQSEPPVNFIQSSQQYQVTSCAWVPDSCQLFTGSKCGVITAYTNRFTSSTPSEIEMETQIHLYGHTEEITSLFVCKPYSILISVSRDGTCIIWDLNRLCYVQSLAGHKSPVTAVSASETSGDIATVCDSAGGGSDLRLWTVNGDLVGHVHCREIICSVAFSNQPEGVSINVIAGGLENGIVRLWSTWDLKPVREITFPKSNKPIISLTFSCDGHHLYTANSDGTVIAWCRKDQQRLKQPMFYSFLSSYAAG
# UniProt P46734: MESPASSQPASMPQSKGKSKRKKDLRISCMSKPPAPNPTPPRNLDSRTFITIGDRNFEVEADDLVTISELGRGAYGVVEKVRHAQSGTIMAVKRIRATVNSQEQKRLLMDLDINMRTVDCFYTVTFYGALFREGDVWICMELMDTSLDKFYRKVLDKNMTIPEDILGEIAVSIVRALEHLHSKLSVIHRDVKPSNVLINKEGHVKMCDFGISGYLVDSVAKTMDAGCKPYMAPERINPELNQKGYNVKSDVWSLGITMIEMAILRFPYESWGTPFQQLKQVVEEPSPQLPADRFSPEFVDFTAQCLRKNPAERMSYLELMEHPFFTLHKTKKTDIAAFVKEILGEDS
# UniProt Q9NR56: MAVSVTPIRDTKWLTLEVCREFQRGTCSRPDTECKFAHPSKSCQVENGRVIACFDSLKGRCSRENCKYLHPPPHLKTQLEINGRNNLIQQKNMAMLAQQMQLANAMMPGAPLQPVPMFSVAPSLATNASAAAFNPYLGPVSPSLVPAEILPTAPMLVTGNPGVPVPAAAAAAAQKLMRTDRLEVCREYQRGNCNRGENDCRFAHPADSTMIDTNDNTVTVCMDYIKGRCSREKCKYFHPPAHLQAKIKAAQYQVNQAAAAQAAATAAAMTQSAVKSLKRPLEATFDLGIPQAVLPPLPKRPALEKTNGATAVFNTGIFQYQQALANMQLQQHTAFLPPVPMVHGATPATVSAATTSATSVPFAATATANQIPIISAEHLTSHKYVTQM
# UniProt Q13164: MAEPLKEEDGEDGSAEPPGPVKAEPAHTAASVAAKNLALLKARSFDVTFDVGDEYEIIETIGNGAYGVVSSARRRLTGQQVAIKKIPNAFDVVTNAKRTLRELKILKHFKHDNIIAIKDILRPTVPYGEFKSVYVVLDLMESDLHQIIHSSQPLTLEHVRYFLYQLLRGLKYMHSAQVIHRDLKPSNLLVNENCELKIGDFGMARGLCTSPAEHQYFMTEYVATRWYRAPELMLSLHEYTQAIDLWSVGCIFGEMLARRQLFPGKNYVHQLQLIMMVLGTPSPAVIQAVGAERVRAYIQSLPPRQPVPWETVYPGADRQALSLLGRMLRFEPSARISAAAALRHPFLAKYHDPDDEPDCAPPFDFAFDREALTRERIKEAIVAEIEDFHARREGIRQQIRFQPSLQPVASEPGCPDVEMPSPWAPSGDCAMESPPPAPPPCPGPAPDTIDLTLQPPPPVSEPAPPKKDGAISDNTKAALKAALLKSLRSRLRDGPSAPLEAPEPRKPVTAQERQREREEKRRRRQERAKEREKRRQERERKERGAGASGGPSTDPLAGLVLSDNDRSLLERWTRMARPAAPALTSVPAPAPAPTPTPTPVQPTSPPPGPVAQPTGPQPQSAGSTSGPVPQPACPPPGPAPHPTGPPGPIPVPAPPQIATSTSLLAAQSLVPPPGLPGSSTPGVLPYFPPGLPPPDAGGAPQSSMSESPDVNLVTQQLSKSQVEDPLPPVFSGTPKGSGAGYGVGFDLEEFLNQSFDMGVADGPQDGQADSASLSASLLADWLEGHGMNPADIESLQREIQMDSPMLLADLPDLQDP
# UniProt O00754: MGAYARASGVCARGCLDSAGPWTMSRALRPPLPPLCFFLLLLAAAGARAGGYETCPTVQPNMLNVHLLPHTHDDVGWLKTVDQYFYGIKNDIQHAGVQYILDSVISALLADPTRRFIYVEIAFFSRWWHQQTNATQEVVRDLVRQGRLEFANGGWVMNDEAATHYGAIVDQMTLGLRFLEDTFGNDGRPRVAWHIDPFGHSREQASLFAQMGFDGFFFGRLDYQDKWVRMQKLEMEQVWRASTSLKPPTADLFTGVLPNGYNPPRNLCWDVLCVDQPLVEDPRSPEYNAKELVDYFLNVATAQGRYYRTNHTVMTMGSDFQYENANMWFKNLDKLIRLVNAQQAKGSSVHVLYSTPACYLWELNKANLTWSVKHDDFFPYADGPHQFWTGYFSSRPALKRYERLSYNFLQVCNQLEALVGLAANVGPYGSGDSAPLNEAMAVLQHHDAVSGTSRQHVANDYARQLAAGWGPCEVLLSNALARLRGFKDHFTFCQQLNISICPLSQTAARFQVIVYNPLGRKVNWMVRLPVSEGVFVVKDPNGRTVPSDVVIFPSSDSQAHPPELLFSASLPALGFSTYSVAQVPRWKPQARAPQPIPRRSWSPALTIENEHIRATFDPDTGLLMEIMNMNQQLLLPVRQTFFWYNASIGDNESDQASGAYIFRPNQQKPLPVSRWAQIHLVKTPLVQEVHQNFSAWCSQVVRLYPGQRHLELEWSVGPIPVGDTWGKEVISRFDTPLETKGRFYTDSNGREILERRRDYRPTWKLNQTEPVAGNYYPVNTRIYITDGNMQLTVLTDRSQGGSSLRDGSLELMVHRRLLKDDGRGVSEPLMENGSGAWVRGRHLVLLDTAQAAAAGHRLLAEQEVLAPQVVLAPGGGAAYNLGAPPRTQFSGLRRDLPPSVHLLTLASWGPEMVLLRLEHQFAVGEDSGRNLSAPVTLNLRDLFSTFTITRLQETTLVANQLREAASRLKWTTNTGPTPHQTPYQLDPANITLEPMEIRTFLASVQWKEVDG
# This is one part of the list.
# Compound: Cc1cc(ccc1-c1ccccc1)C(=O)N1CCCN(CC1)C(=O)CCl [compound 10]
# Assay: probe-labelled cysteine peptide fold change vs DMSO (competition) (log2 fold change); higher = less target engagement (more negative = stronger competition)
# Details: THP-1, incubation time: 4 h
# 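Note: competitive profiling in live THP-1 cells: cysteine peptides tagged with an iodoacetamide desthiobiotin (IA-DTB) probe, intensity after compound treatment relative to DMSO-treated cells.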
Target,probe-labelled cysteine peptide fold change (10 µM),probe-labelled cysteine peptide fold change (50 µM)
MAN2B2_Q9Y2E5_697_LTHVPQGHDGELLCHR (UniProt Q9Y2E5),-0.375,-0.113
MATR3_P43243_230_CRDDSFFGETSHNYHK (UniProt P43243),0.00308,-0.311
MAZ_P56270_371_CEAAFATK (UniProt P56270),0.218,0.119
MAGI3_Q5TCQ9_1279_AGSGQDQCR (UniProt Q5TCQ9),-0.0196,0.446
LYST_Q99698_20_LCNAVVQR (UniProt Q99698),0.042,0.0748
MACF1_Q9UPN3_3109_EIACGAQSEPFPCMTPRPEGLHYQESDGK (UniProt Q9UPN3),-0.348,-0.619
LYAR_Q9NX58_6_VFFTCNACGESVK (UniProt Q9NX58),0.0884,-0.00365
M6PR_P20645_145_RAVVMISCNR (UniProt P20645),-0.131,-0.164
MANBA_O00462_213_IEAYNICHLNYFTFSPIYDK (UniProt O00462),0.396,0.398
MAP2K3_P46734_305_FSPEFVDFTAQCLR (UniProt P46734),0.0829,0.0603
MAP1S_Q66K74_738_SASPHDVDLCLVSPCEFEHR (UniProt Q66K74),-0.0926,-0.165
MBNL1_Q9NR56_185_TDRLEVCR (UniProt Q9NR56),0.00019,-0.0653
MAPK8_P45983_163_SDCTLK (UniProt P45983),-0.283,-1.24
MATR3_P43243_296_GYPHLCSICDLPVHSNK (UniProt P43243),0.102,0.014
MAP2K3_P46734_227_TMDAGCKPYMAPER (UniProt P46734),-0.121,-0.398
MAP2K1_Q02750_277_ELELMFGCQVEGDAAETPPRPR (UniProt Q02750),-0.297,0.0194
MBD1_Q9UIS9_350_RMDCGR (UniProt Q9UIS9),0.0601,-0.0405
LYST_Q99698_3677_SPVTAVSASETSGDIATVCDSAGGGSDLR (UniProt Q99698),0.206,0.232
MBNL1_Q9NR56_27_GTCSRPDTECK (UniProt Q9NR56),0.0284,-0.0688
MAP10_Q9P2G4_605_TVDCSK (UniProt Q9P2G4),-0.237,-0.237

Target,probe-labelled cysteine peptide fold change (10 µM),probe-labelled cysteine peptide fold change (50 µM)
MAPK7_Q13164_359_YHDPDDEPDCAPPFDFAFDREALTR (UniProt Q13164),-0.296,0.0143
MAN2B1_O00754_472_QLAAGWGPCEVLLSNALAR (UniProt O00754),0.113,0.421
MADD_Q8WXG6_1521_ELYYCVK (UniProt Q8WXG6),0.00475,-0.341
MAP1S_Q66K74_435_VLFPGCTPPACLLDGLVR (UniProt Q66K74),0.137,0.173
MAPK14_Q16539_162_DLKPSNLAVNEDCELK (UniProt Q16539),-0.0482,-0.128
MACF1_Q9UPN3_4752_EAQTLCDELSVLIGEQYLK (UniProt Q9UPN3),0.064,0.181
MACF1_Q9UPN3_4325_DASSCQEQLDEFRK (UniProt Q9UPN3),-0.119,0.229
MAP3K2_Q9Y2U5_405_EVNALECEIQLLK (UniProt Q9Y2U5),-0.052,-0.189
MAP4_P27816-4_243_LSFCEDQNAQDR (UniProt P27816),-0.0898,-0.244
MACF1_Q9UPN3_5049_HQLEIFDALGSQACSNK (UniProt Q9UPN3),0.26,0.168
MAP1S_Q66K74_841_HDPLPDPLKVPPPLPDPSSICMVDPEMLPPK (UniProt Q66K74),-0.162,-0.971
MARCH5_Q9NX47_46_WVHQACLQR (UniProt Q9NX47),-0.0838,-0.181
MAF1_Q9H063_34_IESYSCK (UniProt Q9H063),0.123,-0.0472
MAK16_Q9BXY0_17_QFCSFK (UniProt Q9BXY0),-0.115,-0.166
LYAR_Q9NX58_33_NCECLSCIDCGK (UniProt Q9NX58),0.0926,0.167
MAPK7_Q13164_359_YHDPDDEPDCAPPFDFAFDR (UniProt Q13164),-0.303,0.169
MBNL1_Q9NR56_200_GENDCR (UniProt Q9NR56),0.0644,-0.0227
MAN2B1_O00754_273_NLCWDVLCVDQPLVEDPR (UniProt O00754),-0.347,-0.184
LY75_O60449_566_DVDSCGEYNWATVGGR (UniProt O60449),-0.0863,0.151
